Data from article PMC13042984.
For some assays here: At least one result comes from cells or an extract, where the contact may be indirect. For some assays here: No signal at the amounts used counts as a negative. For some assays here: At least one verdict rests on a figure or table, not on a statement of the authors. For some assays here: Tags and fusion partners may be left off the protein sequences shown. For some assays here: Construct, isoform or probe ends are uncertain for at least one entry. For some assays here: The comparison behind a weaker result is the experiment's own reference, which may not be listed here.

Chains of the proteins cited; added tags and fusions are not shown. Where a name states a change or a piece, a line headed by the entry shows the natural chain unless it says otherwise. Chains listed by the source or under a name are the forms on record and can include a tag or linker.
UniProt Q96JM7: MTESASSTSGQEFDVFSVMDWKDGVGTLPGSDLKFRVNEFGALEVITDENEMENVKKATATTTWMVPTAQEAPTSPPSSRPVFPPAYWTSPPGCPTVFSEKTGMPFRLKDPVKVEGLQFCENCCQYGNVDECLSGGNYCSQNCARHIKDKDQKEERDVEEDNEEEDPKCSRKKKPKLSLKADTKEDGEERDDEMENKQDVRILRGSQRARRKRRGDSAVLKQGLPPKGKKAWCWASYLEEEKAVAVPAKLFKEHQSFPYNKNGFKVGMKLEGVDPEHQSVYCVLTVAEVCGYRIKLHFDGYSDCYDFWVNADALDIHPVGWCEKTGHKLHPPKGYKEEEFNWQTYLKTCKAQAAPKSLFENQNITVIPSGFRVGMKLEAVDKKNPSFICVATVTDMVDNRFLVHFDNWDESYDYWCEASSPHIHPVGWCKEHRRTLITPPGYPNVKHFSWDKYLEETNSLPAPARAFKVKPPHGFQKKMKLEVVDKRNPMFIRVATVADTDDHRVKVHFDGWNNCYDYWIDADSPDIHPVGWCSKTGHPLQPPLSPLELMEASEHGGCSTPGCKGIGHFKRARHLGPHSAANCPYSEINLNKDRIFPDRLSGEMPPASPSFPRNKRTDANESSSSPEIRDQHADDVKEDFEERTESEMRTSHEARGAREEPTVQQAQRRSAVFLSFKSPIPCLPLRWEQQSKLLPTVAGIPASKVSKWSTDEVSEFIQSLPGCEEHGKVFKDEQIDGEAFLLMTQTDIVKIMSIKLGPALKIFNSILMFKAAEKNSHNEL
UniProt P48382: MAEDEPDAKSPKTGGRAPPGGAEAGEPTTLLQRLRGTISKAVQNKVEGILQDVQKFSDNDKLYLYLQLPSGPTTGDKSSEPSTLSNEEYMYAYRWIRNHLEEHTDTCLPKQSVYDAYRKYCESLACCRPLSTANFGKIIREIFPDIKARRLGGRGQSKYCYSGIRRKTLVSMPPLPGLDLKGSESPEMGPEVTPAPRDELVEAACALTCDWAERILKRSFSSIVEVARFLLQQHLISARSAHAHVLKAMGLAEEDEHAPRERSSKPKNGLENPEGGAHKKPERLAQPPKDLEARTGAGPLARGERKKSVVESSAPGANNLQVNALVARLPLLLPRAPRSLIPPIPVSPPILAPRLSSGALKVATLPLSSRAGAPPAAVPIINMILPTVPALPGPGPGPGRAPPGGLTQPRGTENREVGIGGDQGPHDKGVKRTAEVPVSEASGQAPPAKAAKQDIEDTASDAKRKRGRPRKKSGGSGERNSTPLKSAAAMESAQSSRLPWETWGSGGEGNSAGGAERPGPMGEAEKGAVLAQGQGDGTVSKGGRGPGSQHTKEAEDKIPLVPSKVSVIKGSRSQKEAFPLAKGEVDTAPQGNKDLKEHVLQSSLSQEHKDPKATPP
MBP-MYC (Homo sapiens), one chain, as listed by the source: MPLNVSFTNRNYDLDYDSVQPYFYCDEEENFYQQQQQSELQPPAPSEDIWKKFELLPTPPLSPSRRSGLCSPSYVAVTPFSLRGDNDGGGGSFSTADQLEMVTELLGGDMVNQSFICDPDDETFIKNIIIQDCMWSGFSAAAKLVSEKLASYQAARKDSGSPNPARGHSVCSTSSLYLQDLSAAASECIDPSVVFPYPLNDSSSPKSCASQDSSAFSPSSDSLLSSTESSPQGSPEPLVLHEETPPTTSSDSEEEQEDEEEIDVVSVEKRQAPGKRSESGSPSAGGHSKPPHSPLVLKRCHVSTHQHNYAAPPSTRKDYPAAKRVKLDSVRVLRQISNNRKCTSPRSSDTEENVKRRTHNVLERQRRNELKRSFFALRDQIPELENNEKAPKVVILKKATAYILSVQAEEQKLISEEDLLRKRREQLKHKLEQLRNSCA

Experiments:
[1] = molecular target: MBP-L3MBTL3 (Homo sapiens) (UniProt Q96JM7); assay: pull-down dot blot; settings: low DNA binding; none; pulldown: 50 mM Tris pH 8, 150 mM NaCl, 1 mM DTT, 0.25% IGEPAL, dA:dT competitor, 4 C overnight; protein in a lysate after …; residues 1-780; protein details: N-terminal MBP, C-terminal His
MBP-MYC (Homo sapiens) = assay: pull-down dot blot; settings: none; pulldown: 50 mM Tris pH 8, 150 mM NaCl, 1 mM DTT, 0.25% IGEPAL, dA:dT competitor, 4 C overnight; protein in a lysate after overexpression; residues 1-439; protein details: N-terminal MBP, C-terminal His
MBP-SUB1 (Homo sapiens) = MBP-SUB1 (Homo sapiens) (UniProt P53999); assay: pull-down dot blot; settings: low DNA binding; none; pulldown: 50 mM Tris pH 8, 150 mM NaCl, 1 mM DTT, 0.25% IGEPAL, dA:dT competitor, 4 C overnight; protein in a lysate after …; residues 1-127; protein details: N-terminal MBP, C-terminal His
[2] = molecular target: T1, MBP-RFXANK (Homo sapiens) (UniProt O14593); assay: pull-down dot blot; settings: none; pulldown: 50 mM Tris pH 8, 150 mM NaCl, 1 mM DTT, 0.25% IGEPAL, dA:dT competitor, 4 C overnight; protein in a lysate after overexpression; residues 1-260; protein details: N-terminal MBP, C-terminal His
T1 sequence (looked up): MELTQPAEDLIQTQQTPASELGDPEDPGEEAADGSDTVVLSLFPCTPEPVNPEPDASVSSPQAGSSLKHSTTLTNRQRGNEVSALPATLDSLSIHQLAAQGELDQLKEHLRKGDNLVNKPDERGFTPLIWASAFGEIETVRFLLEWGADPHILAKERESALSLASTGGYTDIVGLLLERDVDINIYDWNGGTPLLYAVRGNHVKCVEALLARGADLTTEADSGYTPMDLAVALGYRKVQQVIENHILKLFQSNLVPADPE

MBP-MAX (Homo sapiens) = MBP-MAX (Homo sapiens) (UniProt P61244); assay: pull-down dot blot; settings: none; pulldown: 50 mM Tris pH 8, 150 mM NaCl, 1 mM DTT, 0.25% IGEPAL, dA:dT competitor, 4 C overnight; protein in a lysate after overexpression; residues 1-160; protein details: N-terminal MBP, C-terminal His
MBP-TFAM (Homo sapiens) = molecular target: T2, MBP-TFAM (Homo sapiens) (UniProt Q00059); assay: pull-down dot blot; settings: low DNA binding; none; pulldown: 50 mM Tris pH 8, 150 mM NaCl, 1 mM DTT, 0.25% IGEPAL, dA:dT competitor, 4 C overnight; protein in a lysate after …; residues 1-246; protein details: N-terminal MBP, C-terminal His
T2 sequence (looked up): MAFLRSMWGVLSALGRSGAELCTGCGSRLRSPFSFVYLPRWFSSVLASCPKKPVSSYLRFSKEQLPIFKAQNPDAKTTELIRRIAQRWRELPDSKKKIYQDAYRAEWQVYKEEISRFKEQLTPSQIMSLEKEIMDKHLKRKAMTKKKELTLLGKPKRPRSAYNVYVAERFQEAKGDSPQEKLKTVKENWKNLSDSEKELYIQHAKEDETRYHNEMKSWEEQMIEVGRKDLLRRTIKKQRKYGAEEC

MBP-RFX5 (Homo sapiens) = MBP-RFX5 (Homo sapiens) (UniProt P48382); assay: pull-down dot blot; settings: none; pulldown: 50 mM Tris pH 8, 150 mM NaCl, 1 mM DTT, 0.25% IGEPAL, dA:dT competitor, 4 C overnight; protein in a lysate after overexpression; residues 1-616; protein details: N-terminal MBP, C-terminal His
MBP-MBD2 (Homo sapiens) = MBP-MBD2 (Homo sapiens) (UniProt Q9UBB5); assay: pull-down western blot; settings: 1 nM in HEK293T nuclear extract; none; pulldown: 50 mM Tris pH 8, 150 mM NaCl, 1 mM DTT, 0.25% IGEPAL, dA:dT competitor, 4 C overnight; recombinant protein; protein details: N-terminal MBP

“TTTCCAAAGCCCATTCCCTCTTTAGCCAGAGCCGGGGTGTGCAGACGGCAGTCACTAGGGGGCGCTCGGCCACCACAGGGAAGCTGGGTGAATGGAGCGAGCAGCGTCTTCGAGAGTGAGGACGTGTGTGTCTGTGTGGGTGAGTGAGTGTGTGCGTGTGGGGTTGAGGGCGTTGGAGCGGGGAGAAGGCCAGGGGTCACT (double strand) [VEGFA PCR probe C/C]”: binds more weakly [1]; binds (MBP-MYC (Homo sapiens)); binds more weakly (MBP-SUB1 (Homo sapiens)). “TTTCCAAAGCCCATTCCCTCTTTAGCCAGAGCCGGGGTGTGCAGACGGCAGTCACTAGGGGGCGCTCGGCCACCACAGGGAAGCTGGGTGAATGGAGCGAGCAGCGTCTTCGAGAGTGAGGACGTGTGTGTCTGTGTGGGTGAGTGAGTGTGTGCGTGTGGGGTTGAGGGCGTTGGAGCGGGGAGAAGGCCAGGGGTCACT (double strand) [VEGFA PCR probe C/C]”: no binding [2]; binds (MBP-MAX (Homo sapiens)); binds more weakly (MBP-TFAM (Homo sapiens)). “TTTCCAAAGCCCATTCCCTCTTTAGCCAGAGCCGGGGTGTGCAGACGGCAGTCACTAGGGGGCGCTCGGCCACCACAGGGAAGCTGGGTGAATGGAGCGAGCAGCGTCTTCGAGAGTGAGGACGTGTGTGTCTGTGTGGGTGAGTGAGTGTGTGCGTGTGGGGTTGAGGGCGTTGGAGCGGGGAGAAGGCCAGGGGTCACT (double strand) [VEGFA PCR probe C/C]”: binds more weakly (MBP-RFX5 (Homo sapiens)); no binding (MBP-MBD2 (Homo sapiens)).
